Data published in PMC5605756.
No constants are given. Whether binding was seen depends on the method and setting. In cells and extracts the contact can be indirect. Binding calls can cover weak binding; strength is not graded here. For part of these data: Tags and fused reporters may be left off the sequences shown. Blank lines part the entries; values can stand above or below the molecule they belong to.

Protein sequences, listed by entry. Tags and fused reporters are not part of them.
UniProt Q00175: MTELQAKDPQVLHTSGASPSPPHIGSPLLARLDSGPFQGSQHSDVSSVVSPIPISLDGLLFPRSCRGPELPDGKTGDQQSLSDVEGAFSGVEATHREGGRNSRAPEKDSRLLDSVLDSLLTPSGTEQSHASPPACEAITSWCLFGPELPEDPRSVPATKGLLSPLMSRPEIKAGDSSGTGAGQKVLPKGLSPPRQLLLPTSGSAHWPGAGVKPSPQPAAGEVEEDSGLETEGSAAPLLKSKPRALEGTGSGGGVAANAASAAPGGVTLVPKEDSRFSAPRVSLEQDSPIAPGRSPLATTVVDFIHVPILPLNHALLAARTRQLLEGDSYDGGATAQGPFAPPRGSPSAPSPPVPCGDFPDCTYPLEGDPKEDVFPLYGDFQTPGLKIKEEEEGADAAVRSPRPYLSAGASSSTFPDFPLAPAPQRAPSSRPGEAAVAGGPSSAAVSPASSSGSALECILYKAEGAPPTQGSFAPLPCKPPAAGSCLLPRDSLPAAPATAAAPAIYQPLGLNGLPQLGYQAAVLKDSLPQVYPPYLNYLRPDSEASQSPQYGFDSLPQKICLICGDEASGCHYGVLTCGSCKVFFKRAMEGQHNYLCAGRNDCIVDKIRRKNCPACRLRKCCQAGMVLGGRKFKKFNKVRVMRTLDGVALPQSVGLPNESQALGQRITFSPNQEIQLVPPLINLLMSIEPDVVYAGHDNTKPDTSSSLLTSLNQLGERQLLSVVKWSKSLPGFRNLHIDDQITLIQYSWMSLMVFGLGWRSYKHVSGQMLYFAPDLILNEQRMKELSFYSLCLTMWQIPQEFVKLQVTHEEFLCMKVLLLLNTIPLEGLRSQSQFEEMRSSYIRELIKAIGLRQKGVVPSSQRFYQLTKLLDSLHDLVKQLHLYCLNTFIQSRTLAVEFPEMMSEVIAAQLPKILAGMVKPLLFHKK

Legend:
[1] = target: glutathione S-transferase-tagged mouse progestin receptor PR-B (mouse) (UniProt Q00175); experiment: pull-down; GST-PRA or GST-PRB bound to R5020, immobilised on glutathione Sepharose 4B, incubated 1 h at 4°C with pooled female mouse hypothalamic homogenate; eluted by boiling in Laemmli buffer; Western blot; only the target purified
[2] = target: glutathione S-transferase-tagged mouse progestin receptor PR-A (mouse); experiment: pull-down; GST-PRA or GST-PRB bound to R5020, immobilised on glutathione Sepharose 4B, incubated 1 h at 4°C with pooled female mouse hypothalamic homogenate; eluates spotted and read by reverse phase protein array (RPPA) with 212 antibodies, normalised to PR signal; a hit has a ratio R5020/no ligand ≥2 and p < 0.05; only the target purified

binding [1]: binds
Molecule: synapsin-Ia (from UniProt O88935-2)

binding [2]: binds
B1: BCL2 antagonist/killer 1 (protein, UniProt O08734 1-209)
chain: MASGQGPGPPKVGCDESPSPSEQQVAQDTEEVFRSYVFYLHQQEQETQGAAAPANPEMDNLPLEPNSILGQVGRQLALIGDDINRRYDTEFQNLLEQLQPTAGNAYELFTKIASSLFKSGISWGRVVALLGFGYRLALYVYQRGLTGFLGQVTCFLADIILHHYIARWIAQRGGWVAALNFRRDPILTVMVIFGVVLLGQFVVHRFFRS

binding [2]: binds
B2: Cyclin C (protein, UniProt Q62447 1-283)
chain: MAGNFWQSSHYLQWILDKQDLLKERQKDLKFLSEEEYWKLQIFFTNVIQALGEHLKLRQQVIATATVYFKRFYARYSLKSIDPVLMAPTCVFLASKVEEFGVVSNTRLIAATTSVLKTRFSYAFPKEFPYRMNHILECEFYLLELMDCCLIVYHPYRPLLQYVQDMGQEDVLLPLAWRIVNDTYRTDLCLLYPPFMIALACLHVACVVQQKDARQWFAELSVDMEKILEIIRVILKLYEQWKNFDERKEMATILSKMPKPKPPPNSEGEQGPNGSQNSSYSQS
